# Laboratory results reported in the supplement of paper PMC12067093, “Discovery and optimisation of a covalent ligand for TRIM25 and its application to targeted protein ubiquitination” (Chemical Science, 2025).
# Amino acid sequences for entries named in this document (tags omitted). A change or cut given only in a name is not applied to a line headed by its entry.
# UniProt P20936: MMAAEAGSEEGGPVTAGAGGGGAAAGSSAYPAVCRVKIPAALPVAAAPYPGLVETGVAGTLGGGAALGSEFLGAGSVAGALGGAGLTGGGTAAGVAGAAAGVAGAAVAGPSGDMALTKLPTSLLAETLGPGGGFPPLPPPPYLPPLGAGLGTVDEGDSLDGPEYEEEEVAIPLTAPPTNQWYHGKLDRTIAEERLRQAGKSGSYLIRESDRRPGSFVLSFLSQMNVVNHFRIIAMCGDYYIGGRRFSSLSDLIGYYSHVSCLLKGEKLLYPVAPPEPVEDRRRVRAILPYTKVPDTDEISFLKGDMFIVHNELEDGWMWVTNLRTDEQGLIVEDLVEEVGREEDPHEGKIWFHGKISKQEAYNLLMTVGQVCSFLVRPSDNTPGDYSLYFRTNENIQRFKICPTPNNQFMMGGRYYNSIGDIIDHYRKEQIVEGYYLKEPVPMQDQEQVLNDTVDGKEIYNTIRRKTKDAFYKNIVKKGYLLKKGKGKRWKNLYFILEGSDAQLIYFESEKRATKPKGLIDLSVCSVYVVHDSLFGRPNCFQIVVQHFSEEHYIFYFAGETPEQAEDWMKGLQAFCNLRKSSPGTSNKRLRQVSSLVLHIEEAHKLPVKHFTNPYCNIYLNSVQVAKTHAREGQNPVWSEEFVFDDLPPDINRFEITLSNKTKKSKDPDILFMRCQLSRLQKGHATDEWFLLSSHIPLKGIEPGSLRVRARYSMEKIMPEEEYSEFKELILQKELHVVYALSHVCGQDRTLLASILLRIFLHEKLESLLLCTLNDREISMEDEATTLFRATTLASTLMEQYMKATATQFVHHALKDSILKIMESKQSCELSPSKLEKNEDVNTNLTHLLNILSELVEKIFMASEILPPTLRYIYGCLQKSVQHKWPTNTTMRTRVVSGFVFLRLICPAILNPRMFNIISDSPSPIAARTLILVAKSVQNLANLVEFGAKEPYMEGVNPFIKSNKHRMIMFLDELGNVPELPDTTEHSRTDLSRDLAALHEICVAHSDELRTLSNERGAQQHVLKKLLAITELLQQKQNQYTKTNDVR
# UniProt P06400: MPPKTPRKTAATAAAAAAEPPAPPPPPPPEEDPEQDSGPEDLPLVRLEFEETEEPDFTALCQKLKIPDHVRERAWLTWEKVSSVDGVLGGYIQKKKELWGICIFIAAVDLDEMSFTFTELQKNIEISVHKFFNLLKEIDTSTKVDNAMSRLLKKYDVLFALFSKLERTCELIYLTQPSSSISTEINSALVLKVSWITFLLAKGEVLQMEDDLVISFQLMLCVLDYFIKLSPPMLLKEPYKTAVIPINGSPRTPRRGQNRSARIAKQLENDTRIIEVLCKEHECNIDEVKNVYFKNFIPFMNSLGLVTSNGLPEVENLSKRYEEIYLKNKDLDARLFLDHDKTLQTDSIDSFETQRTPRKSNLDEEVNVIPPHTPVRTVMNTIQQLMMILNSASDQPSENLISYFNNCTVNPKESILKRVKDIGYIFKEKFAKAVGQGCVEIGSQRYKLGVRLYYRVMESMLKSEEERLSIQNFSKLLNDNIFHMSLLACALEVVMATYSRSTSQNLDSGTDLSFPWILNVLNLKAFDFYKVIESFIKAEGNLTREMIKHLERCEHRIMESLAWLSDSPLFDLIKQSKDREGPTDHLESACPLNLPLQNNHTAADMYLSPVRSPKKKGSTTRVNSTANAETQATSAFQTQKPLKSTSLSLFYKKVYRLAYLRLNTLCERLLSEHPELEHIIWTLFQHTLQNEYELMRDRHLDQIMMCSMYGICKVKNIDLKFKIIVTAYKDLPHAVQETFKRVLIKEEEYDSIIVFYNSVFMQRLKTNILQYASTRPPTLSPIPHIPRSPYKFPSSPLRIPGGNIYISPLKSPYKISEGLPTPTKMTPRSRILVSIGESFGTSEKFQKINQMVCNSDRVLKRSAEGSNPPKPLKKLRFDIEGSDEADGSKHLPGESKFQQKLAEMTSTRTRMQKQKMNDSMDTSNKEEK
# UniProt Q6VN20, whole entry, looked up: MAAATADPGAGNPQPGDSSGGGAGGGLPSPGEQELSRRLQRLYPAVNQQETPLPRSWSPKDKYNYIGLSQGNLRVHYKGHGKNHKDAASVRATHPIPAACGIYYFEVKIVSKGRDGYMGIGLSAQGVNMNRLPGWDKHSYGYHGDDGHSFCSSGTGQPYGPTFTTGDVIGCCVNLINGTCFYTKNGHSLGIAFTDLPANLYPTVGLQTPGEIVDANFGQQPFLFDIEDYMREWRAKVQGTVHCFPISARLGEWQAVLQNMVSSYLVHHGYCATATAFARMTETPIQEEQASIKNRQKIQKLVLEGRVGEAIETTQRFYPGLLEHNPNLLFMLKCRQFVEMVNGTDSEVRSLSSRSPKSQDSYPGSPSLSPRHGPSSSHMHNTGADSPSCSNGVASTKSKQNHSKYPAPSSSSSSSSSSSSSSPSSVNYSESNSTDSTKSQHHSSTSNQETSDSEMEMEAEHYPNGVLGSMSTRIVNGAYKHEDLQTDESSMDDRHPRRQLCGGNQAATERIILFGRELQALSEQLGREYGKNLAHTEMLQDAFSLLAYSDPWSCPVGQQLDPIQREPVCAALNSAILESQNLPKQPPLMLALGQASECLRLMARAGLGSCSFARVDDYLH
# UniProt P49792, whole entry, looked up: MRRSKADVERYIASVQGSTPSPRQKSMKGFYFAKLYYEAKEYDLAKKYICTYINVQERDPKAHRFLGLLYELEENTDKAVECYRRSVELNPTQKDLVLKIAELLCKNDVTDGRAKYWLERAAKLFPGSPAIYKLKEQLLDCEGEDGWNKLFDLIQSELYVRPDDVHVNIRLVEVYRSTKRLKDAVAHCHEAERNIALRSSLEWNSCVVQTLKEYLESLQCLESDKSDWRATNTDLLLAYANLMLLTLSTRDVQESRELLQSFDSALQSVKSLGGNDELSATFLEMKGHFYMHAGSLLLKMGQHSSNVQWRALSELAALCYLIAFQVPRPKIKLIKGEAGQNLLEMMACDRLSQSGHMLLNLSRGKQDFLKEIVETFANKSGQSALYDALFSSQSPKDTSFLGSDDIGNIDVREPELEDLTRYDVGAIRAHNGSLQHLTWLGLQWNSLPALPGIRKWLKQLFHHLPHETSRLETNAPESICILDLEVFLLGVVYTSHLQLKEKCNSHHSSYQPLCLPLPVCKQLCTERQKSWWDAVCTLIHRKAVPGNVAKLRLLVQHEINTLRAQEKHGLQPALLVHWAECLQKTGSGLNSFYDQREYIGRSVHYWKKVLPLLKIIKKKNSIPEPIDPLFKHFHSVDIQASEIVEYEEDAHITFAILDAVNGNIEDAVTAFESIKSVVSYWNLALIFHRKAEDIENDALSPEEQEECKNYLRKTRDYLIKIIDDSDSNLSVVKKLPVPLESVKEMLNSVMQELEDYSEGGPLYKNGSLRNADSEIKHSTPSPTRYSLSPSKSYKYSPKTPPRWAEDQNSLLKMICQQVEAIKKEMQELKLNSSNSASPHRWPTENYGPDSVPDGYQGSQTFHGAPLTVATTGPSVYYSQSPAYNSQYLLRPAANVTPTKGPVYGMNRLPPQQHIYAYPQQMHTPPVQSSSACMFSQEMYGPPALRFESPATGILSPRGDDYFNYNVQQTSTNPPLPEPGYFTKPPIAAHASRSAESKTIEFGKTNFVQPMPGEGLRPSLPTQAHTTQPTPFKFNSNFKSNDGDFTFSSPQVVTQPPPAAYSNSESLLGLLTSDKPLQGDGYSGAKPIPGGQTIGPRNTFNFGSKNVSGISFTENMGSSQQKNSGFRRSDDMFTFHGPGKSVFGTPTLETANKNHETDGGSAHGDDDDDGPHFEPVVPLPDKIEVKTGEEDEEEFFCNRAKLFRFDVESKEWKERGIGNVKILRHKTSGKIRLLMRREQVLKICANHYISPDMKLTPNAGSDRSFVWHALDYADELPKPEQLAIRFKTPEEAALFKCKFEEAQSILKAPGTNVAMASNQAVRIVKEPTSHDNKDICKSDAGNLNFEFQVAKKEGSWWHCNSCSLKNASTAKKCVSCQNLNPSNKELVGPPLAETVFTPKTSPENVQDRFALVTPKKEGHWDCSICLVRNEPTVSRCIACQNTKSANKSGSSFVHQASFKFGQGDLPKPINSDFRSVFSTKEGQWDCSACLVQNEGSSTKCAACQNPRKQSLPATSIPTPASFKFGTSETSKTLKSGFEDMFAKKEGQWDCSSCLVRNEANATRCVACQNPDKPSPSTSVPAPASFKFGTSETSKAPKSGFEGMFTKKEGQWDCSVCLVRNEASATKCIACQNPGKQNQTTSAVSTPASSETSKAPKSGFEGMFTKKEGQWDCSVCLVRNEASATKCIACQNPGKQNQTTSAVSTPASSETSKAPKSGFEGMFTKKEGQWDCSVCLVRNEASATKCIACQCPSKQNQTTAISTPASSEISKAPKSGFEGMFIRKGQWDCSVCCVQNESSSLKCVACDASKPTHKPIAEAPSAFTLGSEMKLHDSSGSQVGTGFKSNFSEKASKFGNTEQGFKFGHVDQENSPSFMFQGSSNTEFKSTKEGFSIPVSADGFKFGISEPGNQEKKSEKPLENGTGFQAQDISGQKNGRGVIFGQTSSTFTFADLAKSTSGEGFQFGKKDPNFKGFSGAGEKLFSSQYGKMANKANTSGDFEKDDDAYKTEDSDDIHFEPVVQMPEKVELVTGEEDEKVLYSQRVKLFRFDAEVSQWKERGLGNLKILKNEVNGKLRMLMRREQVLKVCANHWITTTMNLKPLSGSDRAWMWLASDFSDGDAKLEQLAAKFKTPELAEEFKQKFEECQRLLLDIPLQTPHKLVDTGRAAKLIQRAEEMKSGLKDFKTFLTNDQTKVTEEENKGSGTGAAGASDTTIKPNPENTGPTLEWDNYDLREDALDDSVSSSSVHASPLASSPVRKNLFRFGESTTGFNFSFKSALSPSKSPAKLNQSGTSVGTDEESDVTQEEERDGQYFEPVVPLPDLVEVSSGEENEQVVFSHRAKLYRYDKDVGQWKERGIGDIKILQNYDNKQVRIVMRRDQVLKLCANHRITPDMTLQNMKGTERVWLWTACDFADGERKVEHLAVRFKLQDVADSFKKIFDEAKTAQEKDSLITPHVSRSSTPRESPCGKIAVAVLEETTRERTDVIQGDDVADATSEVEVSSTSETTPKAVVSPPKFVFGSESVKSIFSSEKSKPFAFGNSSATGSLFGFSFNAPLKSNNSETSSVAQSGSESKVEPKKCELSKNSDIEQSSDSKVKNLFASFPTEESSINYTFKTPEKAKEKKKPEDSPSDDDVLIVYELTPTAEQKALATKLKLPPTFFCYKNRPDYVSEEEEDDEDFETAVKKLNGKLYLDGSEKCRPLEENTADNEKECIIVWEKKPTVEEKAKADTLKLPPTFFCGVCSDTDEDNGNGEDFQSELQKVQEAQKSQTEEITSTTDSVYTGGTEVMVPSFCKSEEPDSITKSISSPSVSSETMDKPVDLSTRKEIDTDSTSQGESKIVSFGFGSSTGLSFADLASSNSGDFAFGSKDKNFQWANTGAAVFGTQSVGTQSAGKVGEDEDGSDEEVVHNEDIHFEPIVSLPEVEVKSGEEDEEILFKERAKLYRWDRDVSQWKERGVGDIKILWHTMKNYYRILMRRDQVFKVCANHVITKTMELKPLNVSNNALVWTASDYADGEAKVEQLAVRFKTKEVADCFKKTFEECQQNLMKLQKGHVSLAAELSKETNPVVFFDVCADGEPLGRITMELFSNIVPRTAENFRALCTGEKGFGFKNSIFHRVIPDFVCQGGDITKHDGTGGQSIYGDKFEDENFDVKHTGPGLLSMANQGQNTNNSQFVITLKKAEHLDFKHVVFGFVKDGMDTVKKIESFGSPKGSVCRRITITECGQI
# UniProt P43487, whole entry, looked up: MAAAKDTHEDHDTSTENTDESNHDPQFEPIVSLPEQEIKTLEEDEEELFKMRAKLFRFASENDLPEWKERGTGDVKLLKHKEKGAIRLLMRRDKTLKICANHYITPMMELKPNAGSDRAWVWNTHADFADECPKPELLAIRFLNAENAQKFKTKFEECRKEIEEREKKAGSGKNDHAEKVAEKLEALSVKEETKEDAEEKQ
# UniProt Q9NW64: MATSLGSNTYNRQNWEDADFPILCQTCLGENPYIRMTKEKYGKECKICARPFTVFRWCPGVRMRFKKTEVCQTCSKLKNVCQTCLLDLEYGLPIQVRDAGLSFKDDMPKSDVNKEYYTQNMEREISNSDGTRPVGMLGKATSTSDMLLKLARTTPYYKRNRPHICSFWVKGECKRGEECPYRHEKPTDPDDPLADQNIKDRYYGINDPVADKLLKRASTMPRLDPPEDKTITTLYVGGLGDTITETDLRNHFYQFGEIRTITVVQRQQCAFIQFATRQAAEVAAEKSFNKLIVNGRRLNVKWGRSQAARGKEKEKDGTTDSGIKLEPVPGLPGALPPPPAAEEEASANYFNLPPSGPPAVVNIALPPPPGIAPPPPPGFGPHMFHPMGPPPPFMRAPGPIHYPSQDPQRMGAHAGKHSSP
# This is one part of the list.
# Compound: Cc1cc(ccc1-c1ccccc1)C(=O)N1CCCN(CC1)C(=O)CCl [compound 10]
# Experiment: probe-labelled cysteine peptide fold change vs DMSO (competition) (log2 fold change); higher = less target engagement (more negative = stronger competition)
# Conditions: THP-1, incubation time: 4 h
# 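Also: competitive profiling in live THP-1 cells: cysteine peptides tagged with an iodoacetamide desthiobiotin (IA-DTB) probe, intensity after compound treatment relative to DMSO-treated cells.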
Target,probe-labelled cysteine peptide fold change (10 µM),probe-labelled cysteine peptide fold change (50 µM)
RALGPS2_Q86X27_341_CHSLGYNFIHK (UniProt Q86X27),-0.208,-0.32
RASA1_P20936_828_QSCELSPSK (UniProt P20936),0.0294,0.292
RB1_P06400_278_IIEVLCK (UniProt P06400),0.188,0.119
RB1_P06400_706_HLDQIMMCSMYGICK (UniProt P06400),0.352,0.544
RASA1_P20936_1002_DLAALHEICVAHSDELR (UniProt P20936),-0.144,0.0744
RANBP9_Q96S59_719_SGIGSCAFATVEDYLH (UniProt Q96S59),-0.139,-0.121
RBBP4_Q09028_278_PSHSVDAHTAEVNCLSFNPYSEFILATGSADK (UniProt Q09028),0.236,0.259
RBM17_Q96I25_339_CVIFEIPGAPDDEAVR (UniProt Q96I25),0.133,0.0548
RANBP10_Q6VN20_501_RQLCGGNQAATER (UniProt Q6VN20),-0.0263,-0.358
RANBP2_P49792_707_AEDIENDALSPEEQEECK (UniProt P49792),0.0365,0.0945
RASAL2_Q9UJF2-2_95_KYCILTDSQLVLLNK (UniProt Q9UJF2),0.13,-0.173
RANBP2_P49792_1243_ICANHYISPDMK (UniProt P49792),0.0568,0.0875
RASGRP2_Q7LDG7_76_TCHLVR (UniProt Q7LDG7),-0.118,-0.125
RANBP1_P43487_99_ICANHYITPMMELKPNAGSDR (UniProt P43487),0.141,-0.0316
RBM22_Q9NW64_179_RGEECPYR (UniProt Q9NW64),0.137,0.000136
RANBP10_Q6VN20_100_ATHPIPAACGIYYFEVK (UniProt Q6VN20),-0.173,0.213
RECQL4_O94761_636_MGVHCFLGLTATATR (UniProt O94761),0.00652,-0.192
RANBP2_P49792_3221_ITITECGQI (UniProt P49792),-0.0955,0.161
RBM22_Q9NW64_84_NVCQTCLLDLEYGLPIQVR (UniProt Q9NW64),0.0629,-0.183
RBM22_Q9NW64_71_KTEVCQTCSK (UniProt Q9NW64),-0.0894,-0.279
RECK_O95980_902_ALQIEACNK (UniProt O95980),-0.445,0.0576
RCHY1_Q96PM5_105_QYHCENCGICR (UniProt Q96PM5),0.0335,0.0257
